These are yes or no findings as the source states them, for the method shown. In cells and extracts the contact can be indirect. Binding calls can cover weak binding; strength is not graded here. Where a sequence is shown, tags or fusion partners need not be part of it.
Legend:
Assay in all cases: co-IP; soluble extracts of co-transfected HEK293 cells; IP with anti-Flag M2-agarose beads overnight at 4 °C; co-IP buffer 50 mM HEPES pH 7.4, 120 mM NaCl, 5 mM EDTA, 10% glycerol, 1% Triton X-100; immunoblot; in one panel cells treated with or without sodium orthovanadate (1 mM) and H2O2 (0.2 mM)
[1] = molecular target: Flag-tagged murine SOCS3 truncation mutant ΔC84 (murine)
[2] = molecular target: Flag-tagged murine SOCS3 truncation mutant ΔN36 (murine)
[3] = molecular target: Flag-tagged murine SOCS3 truncation mutant ΔC40 (murine)
[4] = molecular target: Flag-tagged murine SOCS3 truncation mutant ΔN20 (murine)

- binding [1]: binds
- binding [2]: binds
- binding [3]: binds
- binding [4]: binds
B1: N-terminally GFP-tagged murine cavin-1 (protein, UniProt O54724 1-392)
chain: MEDVTLHIVERPYSGFPDASSEGPEPTQGEARATEEPSGTGSDELIKSDQVNGVLVLSLLDKIIGAVDQIQLTQAQLEERQAEMEGAVQSIQGELSKLGKAHATTSNTVSKLLEKVRKVSVNVKTVRGSLERQAGQIKKLEVNEAELLRRRNFKVMIYQDEVKLPAKLSVSKSLKESEALPEKEGDELGEGERPEDDTAAIELSSDEAVEVEEVIEESRAERIKRSGLRRVDDFKKAFSKEKMEKTKVRTRENLEKTRLKTKENLEKTRHTLEKRMNKLGTRLVPVERREKLKTSRDKLRKSFTPDHVVYARSKTAVYKVPPFTFHVKKIREGEVEVLKATEMVEVGPEDDEVGAERGEATDLLRGSSPDVHTLLEITEESDAVLVDKSDSD

Reference: publication PMC5766592
